{"source": "paper PMC7002685", "about": "“Inhibition of vascular calcification by inositol phosphates derivatized with ethylene glycol oligomers” (Nature Communications, 2020)", "key": {"[1]": {"test_system": "transformation of CPP1 to CPP2 in pooled human serum", "assay": "In vitro serum calcification propensity (T50) screening assay", "type": "biochemical", "design": "key: T50 in minutes (time to 50% CPP phase transition)", "method": "The compounds were ranked for calcification inhibition activity using a nanoparticle-based test, developed for risk stratification, which measures the propensity for calcification in patient serum. […] The time, after which 50% of CPP phase transition occurred (T50), was assessed by time-resolved spectrophotometry at 550 nm (Supplementary Fig. 1a).\nThe screening assay was performed as described previously. In brief, pooled human serum (H4522, Sigma-Aldrich) stored at −20 °C was thawed at 37 °C, centrifuged (10,000 × g, and 4 °C, 30 min) (5427R, Eppendorf, Switzerland), and sterile filtered (0.22 μm filter, Millipore, Merck KGaA) to remove potential cryoprecipitates (cleared human serum). The calcium solution was 40 mM CaCl2 (102382, Merck KGaA) in HBS, pH 7.4 (RT) (100 mM HEPES (H3375, Sigma-Aldrich) and 140 mM NaCl (1734712, Fisher Scientific, Hampton, NH, USA)). […] All salt solutions and buffers were double sterile filtered (0.22 µm) and pre-warmed to 37 °C prior to use. […] The plate was sealed with an adhesive film and the absorption at 550 nm was measured every 3 min with 1 min in-between shaking for a total of 300 cycles at 37 °C using the infinite M200 microplate reader (Tecan, Männedorf, Switzerland). An A550 vs. time graph was generated and T50 (min) (time at half-maximum transition from CPP1 to CPP2) values were derived by sigmoidal curve fit using Prism 8 (nonlinear regression in the log(agonist) vs. response–variable slope (four parameter mode) using the robust fit fitting method, GraphPad Software, San Diego, CA, USA). Activities between compounds were compared by generating a T50 (min) vs. concentration (µM) graph, calculating nonlinear regression and deriving the concentration required to delay T50 to 350 min (c350) using a standard equation for the dose–response curve, Eq. (1), whereby x = [compound], y = time (min), bottom = baseline response, top = maximum response, T50 = [drug] that leads to half-maximum response, and the hill slope is a factor that describes the steepness of the curve.1 y= bottom+top - bottom/1+T50/x^hillslope."}, "PK in healthy rats, s.c.": {"assay": "PK in healthy rats, s.c.", "type": "in vivo, male Sprague-Dawley rats", "conditions": "10 mg/kg s.c., unit not given, listed as INS-3001"}, "[2]": {"assay": "PK s.c. in rats with vitamin D and warfarin-induced VC", "type": "in vivo, rat", "conditions": "50 mg/kg s.c., unit not given", "method": "Moreover, the systemic exposure of the compound after s.c. administration was assessed in rats with VC (Fig. 4f, Supplementary Table 3).\nTo study PK in rats presenting with VC, plasma samples were used from a sub-group of the study where calcification was induced with vitamin D and warfarin treatment.\n(§1) The bioanalytical method for (OEG2)2-IP4 in rat plasma was further optimized, qualified, and applied to the comparative PK study in adenine and high-phosphate diet-induced VC vs. vitamin D-induced VC animals. The LC-MS/MS analyses were carried out using a Dionex Ultimate RSLC ultra-high-pressure liquid chromatography (UHPLC) system (Thermo Fisher Scientific) coupled with a TSQ Quantiva^TM triple quadrupole mass spectrometer. The samples were stored at 5 °C in the autosampler prior to and during the analyses. […] Gradient elution (solvent A, 20 mM ammonium acetate in water (pH 5); solvent B, ACN) was used according to the program reported in Supplementary Table 18. The injection volume was 10 µL. MS/MS parameters (MRM acquisition, cycle time 0.2 s) for (OEG2)2-IP4 are reported in Supplementary Table 19 and the ESI source, working in negative ionization mode, applied the following parameters: static spray voltage 3000 V ion transfer tube and vaporizer temperatures at 400 and 100 °C, respectively; sheath and auxiliary gas (nitrogen) flow rates at 80 and 3 (arbitrary units). For the quantitative determination in rat plasma, product ion m/z 158.9 was selected because it provided the best sensitivity and selectivity. Calibration curve and quality control samples were prepared by adding 2 μL of working solution to 38 μL rat blank K3EDTA plasma (Biochemed, Winchester, VA) and precipitating plasma protein by addition of 120 μL of MeOH including internal standard OEG11-IP5. Samples were vortexed 1 min and centrifuged at (22,000 × g, 4 °C, 10 min). Supernatants (90 μL) were then transferred into a glass vial with insert and injected onto LC-MS/MS system. Both in adenine and high-phosphate diet-induced VC and vitamin D-induced VC rat PK samples were prepared for analysis in an analogous manner as done for spiked samples (assay volume 40 μL). The LLOQ and LOD in rat plasma for (OEG2)2-IP4 were 50 and 10 ng/mL, respectively. The ULOQ and detection was 50,000 ng/mL."}, "[3]": {"assay": "PK s.c. in healthy and adenine/high-phosphate-diet (uremic) rats", "type": "in vivo, male Sprague-Dawley rats", "conditions": "individual rats", "method": "For many drugs, the PK profile depends on the patient’s renal status. Therefore, (OEG2)2-IP4 PK profile was also determined in an adenine and high-phosphate-diet-induced rat model of uremia, in which the compound was administered after serum creatinine levels had increased by fourfold relative to baseline (Fig. 4g, h). […] Similar results were observed following s.c. administration (Supplementary Table 5).\nTo study PK in uremic animals, male Sprague-Dawley rats (Charles River Laboratories, L’Arbresle, France) were housed two per cage with free access to water and standard chow (rat/mouse maintenance diet, SSNIFF Spezialdiäten GmbH, Soest, Germany) and submitted to a 12-h light/dark cycle. Animals were fed a low-protein (2.5%) diet containing high phosphorus (1.3% phosphorus and 0.7% calcium) and 0.3% adenine to induce uremia (SSNIFF Spezialdiäten GmbH). Control animals were fed same diet but without adenine. Every 10 days, a sample of blood was punctured at the tail vein of each animal. Serum and urine creatinine, calcium, and phosphorus were then assessed using standard colorimetric biochemistry analysis (Cobas Mira, Roche, Basel, Switzerland). When a fourfold increase of creatinine was observed compared to control, the rat was considered uremic and suitable for PK experiments. The method was validated using eight animals on control- and adenine-supplemented diet respectively. For PK studies, on the morning of the experimental day, a catheter was inserted in the right carotid artery under halothane anesthesia. Subsequently, rats were allowed to recover for 3 h and uremic and non-uremic rats, respectively, were assigned to three groups of six rats each. […] Blood aliquots were drawn after drug administration, centrifuged, decanted, and stored at −80 °C until serum drug quantification by LC-MS, as well as analysis of serum creatinine, calcium, and phosphorus (Cobas Mira).\nas §1"}}, "note": "“And” between values parts separate entries of the source, which are not always exact repeats. Equal entries are not always repeated. This continues a long series; more values of the same kind are listed elsewhere.", "data": [{"smiles": "O=P(O)(O)O[C@H]1[C@H](OP(=O)(O)O)[C@@H](OP(=O)(O)O)[C@H](OP(=O)(O)O)[C@@H](OP(=O)(O)O)[C@H]1OP(=O)(O)O", "note": "[IP6, myo-Inositol hexakisphosphate]", "values": [{"measurement": "T50", "setting": "[1]; 1 µM, individual experiments, Fig. 2a", "result": "205.833 min and 241.367 min and 211.033 min and 236.6 min and 219.333 min and 246.167 min and 222.067 min and 238.467 min and 218.333 min and 214.533 min and 215.3 min and 189.27 min and 219.5 min and 285.033 min and 217.167 min and 213.067 min and 193.5 min and 255.733 min and 223.95 min and 207.467 min and 150.1 min and 195.15 min and 221.567 min and 215.367 min and 214 min and 248.3 min and 238.433 min"}, {"measurement": "T50", "setting": "[1]; 50 µM, individual experiments, Fig. 2a", "result": "408.6 min and 411.9 min"}, {"measurement": "T50", "setting": "[1]; concentration 4.1 μM, one value per experiment", "result": "217.4 and 239.4 and 277.7 and 241.067"}, {"measurement": "T50", "setting": "[1]; concentration 5 μM, one value per experiment", "result": "249.8 and 203.1 and 210"}, {"measurement": "T50", "setting": "[1]; concentration 8.2 μM, one value per experiment", "result": 256.2}, {"measurement": "T50", "setting": "[1]; concentration 15 μM, one value per experiment", "result": "257.433 and 252.1 and 309.067 and 247.867"}, {"measurement": "T50", "setting": "[1]; concentration 20 μM, one value per experiment", "result": "287.15 and 265.7 and 269.8"}]}, {"smiles": "COCCOCCO[C@@H]1[C@@H](OP(=O)(O)O)[C@H](OCCOCCOC)[C@@H](OP(=O)(O)O)[C@@H](OP(=O)(O)O)[C@H]1OP(=O)(O)O", "note": "[(OEG2)2-IP4, 4,6-Di-O-(methoxy-diethyleneglycol)-myo-inositol-1,2,3,5-tetrakis(phosphate)]", "values": [{"measurement": "plasma concentration", "setting": "PK in healthy rats, s.c.; 5 min, individual rats Fig. 4c", "result": "5.25 and 4.88 and 3.96"}, {"measurement": "plasma concentration", "setting": "PK in healthy rats, s.c.; 0.25 h", "result": "11.57 and 10.44 and 9.75"}, {"measurement": "plasma concentration", "setting": "PK in healthy rats, s.c.; 0.5 h", "result": "11.38 and 11.68 and 13.4"}, {"measurement": "plasma concentration", "setting": "PK in healthy rats, s.c.; 1 h", "result": "8.31 and 7.96 and 7.74"}, {"measurement": "plasma concentration", "setting": "PK in healthy rats, s.c.; 2 h", "result": "3.78 and 4.11 and 3.83"}, {"measurement": "plasma concentration", "setting": "PK in healthy rats, s.c.; 2.5 h", "result": "1.48 and 1.72 and 1.16"}, {"measurement": "plasma concentration", "setting": "PK in healthy rats, s.c.; 4 h", "result": "0.41 and 0.73 and 0.37"}, {"measurement": "plasma concentration", "setting": "PK in healthy rats, s.c.; 6 h", "result": "0.11 and 0.13 and 0.12"}, {"measurement": "plasma concentration", "setting": "[2]; calcification, time 0", "result": "0.1 and 0.09"}, {"measurement": "plasma concentration", "setting": "[2]; calcification, time 0.5", "result": "29.92 and 33.93 and 44.72 and 24.81"}, {"measurement": "plasma concentration", "setting": "[2]; calcification, time 1", "result": "31.77 and 35.22 and 43.64 and 22.41"}, {"measurement": "plasma concentration", "setting": "[2]; calcification, time 2", "result": "21.96 and 26.6 and 34.67 and 22.63"}, {"measurement": "plasma concentration", "setting": "[2]; no calcification, time 0, individual rats Fig. 4f", "result": "0.11 and 0.07 and 0.05 (2×)"}, {"measurement": "plasma concentration", "setting": "[2]; no calcification, time 0.5", "result": "49.46 and 54.81 and 36.19 and 53.17"}, {"measurement": "plasma concentration", "setting": "[2]; no calcification, time 1", "result": "31.67 and 36.63 and 38.99 and 33.67"}, {"measurement": "plasma concentration", "setting": "[2]; no calcification, time 4", "result": "5.6 and 4.16 and 4.71 and 2.98"}, {"measurement": "plasma concentration", "setting": "[2]; no calcification, time 6", "result": "1.4 and 1.5 and 1.1 and 1.12"}, {"measurement": "plasma concentration (Figure 4h)", "setting": "[3]; Healthy, Time 5 min", "result": "10.8247 and 14.4267 and 10.1109 and 10.4757 and 9.587 and 7.707"}, {"measurement": "plasma concentration (Figure 4h)", "setting": "[3]; Healthy, Time 0.25 h", "result": 12.5969}, {"measurement": "plasma concentration (Figure 4h)", "setting": "[3]; Healthy, Time 0.5 h", "result": "12.0842 and 17.8362 and 7.972 and 7.101 and 10.7529 and 6.619"}, {"measurement": "plasma concentration (Figure 4h)", "setting": "[3]; Healthy, Time 1 h", "result": "14.859 and 15.0529 and 3.358 and 3.315 and 4.189 and 3.695"}, {"measurement": "plasma concentration (Figure 4h)", "setting": "[3]; Healthy, Time 2 h", "result": "5.516 and 9.679 and 0.6721 and 0.7942 and 1.077 and 1.0197"}, {"measurement": "plasma concentration (Figure 4h)", "setting": "[3]; Healthy, Time 4 h", "result": "1.074 and 2.423 and 0.181 and 0.2442 and 0.2082 and 0.1436"}, {"measurement": "plasma concentration (Figure 4h)", "setting": "[3]; Healthy, Time 5 h", "result": "1.449 and 0.1379 and 0.1235 and 0.1092 and 0.07755"}, {"measurement": "plasma concentration (Figure 4h)", "setting": "[3]; Healthy, Time 6 h", "result": "0.3835 and 0.8689 and 0.09479 and 0.1135 and 0.09335 and 0.05027"}, {"measurement": "plasma concentration (Figure 4h)", "setting": "[3]; Uremic, Time 5 min", "result": "3.569 and 3.0031 and 5.041 and 3.385"}, {"measurement": "plasma concentration (Figure 4h)", "setting": "[3]; Uremic, Time 0.25 h", "result": "9.98 and 7.361 and 8.303"}, {"measurement": "plasma concentration (Figure 4h)", "setting": "[3]; Uremic, Time 0.5 h", "result": "13.3466 and 9.674 and 7.336 and 6.617 and 6.881"}, {"measurement": "plasma concentration (Figure 4h)", "setting": "[3]; Uremic, Time 1 h", "result": "9.92 and 14.2041 and 9.624 and 5.504 and 17.042 and 11.1047"}, {"measurement": "plasma concentration (Figure 4h)", "setting": "[3]; Uremic, Time 2 h", "result": "3.592 and 8.353 and 8.923 and 5.504 and 9.903 and 5.99"}, {"measurement": "plasma concentration (Figure 4h)", "setting": "[3]; Uremic, Time 3 h", "result": "1.439 and 5.9387 and 3.026"}, {"measurement": "plasma concentration (Figure 4h)", "setting": "[3]; Uremic, Time 4 h", "result": "0.8316 and 4.9391 and 5.0181 and 3.583 and 2.826 and 2.029"}, {"measurement": "plasma concentration (Figure 4h)", "setting": "[3]; Uremic, Time 5 h", "result": "3.697 and 3.167 and 1.018"}, {"measurement": "plasma concentration (Figure 4h)", "setting": "[3]; Uremic, Time 6 h", "result": "0.3978 and 2.859 and 2.812 and 2.577 and 0.4567 and 0.5946"}]}]}
